Values from PubChem BioAssay AID1508597 (Cure First, 2020).
Test: 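Survival screen with siRNA in ovarian cancer cells derived from patients, with or without rucaparib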 (primary screen). Cell system: human ovarian carcinoma lines grown from tumours: OCI-P5x (papillary serous) and OCI-C5x (clear cell). Knock-down reagent: siRNA pool against human genes, 1.25 pmol siRNA per well. Time to read-out: 72 h or 96 h, depending on the cell culture. Challenge: rucaparib 20 µM (about IC30) or vehicle, present until read-out. Rucaparib or vehicle: Rucaparib. Cell line: OCI-C5x (clear cell). Read-out: 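ATP luminescence measured at 72 or 96 h according to the culture, then normalised and expressed as percent viability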. Scale: viability, normalised: higher = more viable cells remaining. Hit rule: 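a well counts as a hit if its normalised viability is under 80 percent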. Meaning of the calls: active = viability under 80%; inactive = viability 80% or more.
This is an unselected part of the about 2,100 reagents, in one setting of the screen. 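Calls flag viability under 80% in either arm, not effects specific to rucaparib; the reference for percent is not stated.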 Not stated in the record: the 100% reference.

Which result is listed for USP28, technical replicate 1?
viability, normalised (%): 55.8; activity call: active

What is on record for USP28, technical replicate 2?
viability, normalised (%): 68.8; activity call: active

For USP28, technical replicate 3, what does the deposit list?
viability, normalised (%): 56.3; activity call: active

For RFC4, technical replicate 1, what was measured?
viability, normalised (%): 47.5; activity call: active

Which result is listed for RFC4, technical replicate 2?
viability, normalised (%): 57.8; activity call: active

With RFC4, technical replicate 3, what does the deposit list?
viability, normalised (%): 52.2; activity call: active

How did the screen score SUPT5H, technical replicate 1?
viability, normalised (%): 61.9; activity call: active

Which result is listed for SUPT5H, technical replicate 2?
viability, normalised (%): 42.3; activity call: active

With SUPT5H, technical replicate 3, how do the results read?
viability, normalised (%): 50.9; activity call: active

With AK3, technical replicate 1, what was measured?
viability, normalised (%): 42.4; activity call: active

With AK3, technical replicate 2, what was measured?
viability, normalised (%): 53.5; activity call: active

With AK3, technical replicate 3, how do the results read?
viability, normalised (%): 46.8; activity call: active
